## Library screening results

Amino acid sequences for entries named in this document (tags omitted).
UniProt E9BF75, entry or part of it: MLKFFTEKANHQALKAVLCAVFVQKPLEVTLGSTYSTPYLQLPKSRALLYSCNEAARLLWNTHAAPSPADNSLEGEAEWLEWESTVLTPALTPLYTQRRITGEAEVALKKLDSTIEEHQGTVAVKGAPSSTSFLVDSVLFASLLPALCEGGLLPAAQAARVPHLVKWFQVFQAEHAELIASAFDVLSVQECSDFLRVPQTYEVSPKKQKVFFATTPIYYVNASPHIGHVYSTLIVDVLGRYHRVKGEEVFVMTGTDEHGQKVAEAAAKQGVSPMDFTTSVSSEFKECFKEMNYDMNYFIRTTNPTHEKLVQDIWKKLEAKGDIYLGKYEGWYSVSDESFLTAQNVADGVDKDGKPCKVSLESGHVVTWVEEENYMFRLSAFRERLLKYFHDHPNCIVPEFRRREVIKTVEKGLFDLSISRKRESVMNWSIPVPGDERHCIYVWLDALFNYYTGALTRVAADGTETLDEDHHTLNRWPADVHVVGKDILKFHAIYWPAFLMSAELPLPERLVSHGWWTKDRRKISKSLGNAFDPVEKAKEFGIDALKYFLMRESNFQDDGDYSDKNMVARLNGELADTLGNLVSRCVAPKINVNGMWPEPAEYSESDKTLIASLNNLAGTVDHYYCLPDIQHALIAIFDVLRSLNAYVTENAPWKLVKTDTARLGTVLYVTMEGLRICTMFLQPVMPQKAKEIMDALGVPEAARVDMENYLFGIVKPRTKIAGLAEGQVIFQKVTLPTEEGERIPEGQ

LdMetRS: 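Methionyl-tRNA synthetase (putative), Leishmania donovani (UniProt E9BF75). Primary screen of methionyl-tRNA synthetase; the read-out is not stated. The test concentration is not given. Values are per cent inhibition. Of about 68,000 compounds tested this way, about 24 (0.035%) reached 50% or more in at least one test.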
Mtb heat-shock: 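Assay on Mycobacterium tuberculosis, filed only as a heat shock assay from Cornell; the read-out is not stated. The concentration is filed as 10 mM, unlikely as a test dose, so the dose is not known. Direction is inferred from retests: higher values go with stronger inhibition. Size under these conditions: about 69,000 compounds, about 930 of them at 50% or above in at least one test.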

Results are percentages, as filed. How 0% and 100% were set is not recorded. Most values in the screen are low, and negative values occur. Compounds were drawn at random from those tested, without regard to their results. A dash means the value is not listed here; it may have been measured.

Result for COCCN1CCN(C(=O)C[C@@H]2C[C@@H](C(C)C)[C@H](CO)C=C2C)CC1 was LdMetRS: 7.692%; Mtb heat-shock: -2.324%. For c1ccc(CN2C[C@@H]3OCCN(c4ncccn4)[C@@H]3C2)nc1 the result was LdMetRS: 13.59%. O=C(CN1CCCC1=O)NCc1cccnc1Oc1ccc(F)c(F)c1 gave LdMetRS: 4.899%; Mtb heat-shock: -14.1%. For Cc1cc(-c2cc(N)c(=O)n(CC(=O)NC3CCCCC3)n2)c(C)o1 the result was LdMetRS: 7.188%; Mtb heat-shock: 17.75%. Result for Cc1ccccc1-c1cncc(C2CCN(C(C)C)CC2)n1 was LdMetRS: 19.93%; Mtb heat-shock: -4.295%. With [H][C@@]12CCN(c3cccc(C)n3)C[C@]1([H])[C@@H](CN(C)Cc1ccco1)OC2 the screen gave Mtb heat-shock: -3.336%.

CCn1nc(CC(C)C)cc1C(=O)N1CCC2(CC1)[C@H](O)C[C@@H]2O gave Mtb heat-shock: 2.405%. COc1cccc(C2=CCN(CCN3CCCC3=O)CC2)c1 read LdMetRS: 3.125%; Mtb heat-shock: 0.4678%. Result for Cc1nnsc1CNC(=O)Nc1cccc(N2CCN(C)C2=O)c1 was LdMetRS: 20.24%; Mtb heat-shock: -99.35%. Result for O=C(CCn1cncn1)NCC1CCS(=O)(=O)C1 (configuration not stated) was LdMetRS: 12.81%; Mtb heat-shock: 6.41%. Result for Cc1ccccc1OC1CN(Cc2c(C)nc3ccccn23)C1 was LdMetRS: 6.863%; Mtb heat-shock: 19.9%. For CC(Cc1cn(CCc2nnn[nH]2)nn1)c1ccccc1 (configuration not stated) the result was LdMetRS: 8.094%; Mtb heat-shock: 4.38%.

[H][C@@]12CN(C(=O)C3CCOCC3)C[C@@]1([H])N(CC(C)C)C(=O)CO2 gave Mtb heat-shock: 13.71%. COCCN1CCN(Cc2coc(-c3ccccc3Cl)n2)CC1 read LdMetRS: 6.949%; Mtb heat-shock: -25.81%. Result for CC(=O)N1CCS(=O)(=O)[C@@H]2CCN(S(=O)(=O)CC(C)C)CC[C@@H]21 was LdMetRS: 7.958%. Result for Cc1noc(C)c1CN(C)C(=O)NC(C)c1cccs1 (configuration not stated) was LdMetRS: -0.8065%; Mtb heat-shock: -11.35%. Result for CCN(CC)C(=O)Cn1ccc2cc(NC(=O)C3CCCCC3)ccc21 was LdMetRS: 3.279%; Mtb heat-shock: -1.73%. For Cc1nc([C@@H]2C[C@H]3CN(Cc4ccc5c(c4)OCO5)C[C@H]3O2)no1 the result was LdMetRS: 13.45%.

For COCCOc1ncccc1C(=O)N1CCCC1Cn1cc(C)cn1 (configuration not stated) the result was LdMetRS: 13.68%; Mtb heat-shock: 3.692%. CCC(=O)Nc1cc(Cl)ccc1C(=O)N(C)Cc1noc(CC)n1 read LdMetRS: 17.01%; Mtb heat-shock: -32.24%. Cn1ccc(C(=O)N2CCC(Cc3cccc4ncccc34)C2)n1 (configuration not stated) gave LdMetRS: 4%; Mtb heat-shock: -11.49%. CCCc1nnsc1C(=O)N1CCN(CC(C)O)CC1 (configuration not stated) gave LdMetRS: 14.39%. For CC(C)N1CCc2ncn(C)c2C1C(=O)N1CCOCC1 (configuration not stated) the result was LdMetRS: 7.33%. For C=C(C)COc1ccc(C(=O)N(C)C(C)c2ccon2)cc1 (configuration not stated) the result was LdMetRS: 11.63%; Mtb heat-shock: -22.13%.

For O=S1(=O)CCCN1Cc1coc(-c2ccc(C(F)(F)F)cc2)n1 the result was LdMetRS: 4.12%; Mtb heat-shock: -18.19%.

The last 3 entries again:

| structure | LdMetRS | Mtb heat-shock |
|---|---|---|
| `CC(C)N1CCc2ncn(C)c2C1C(=O)N1CCOCC1` (configuration not stated) | 7.33% | - |
| `C=C(C)COc1ccc(C(=O)N(C)C(C)c2ccon2)cc1` (configuration not stated) | 11.63% | -22.13% |
| `O=S1(=O)CCCN1Cc1coc(-c2ccc(C(F)(F)F)cc2)n1` | 4.12% | -18.19% |

From ChEMBL document CHEMBL3988442, “University of Dundee, Small-Polar-MMV Screening Library” (2021).